Here are results for 17 molecules from PubChem BioAssay AID2685 (National Center for Advancing Translational Sciences (NCATS), 2010).

This experiment in a line: qHTS Assay for Lipid Storage Modulators in Drosophila S3 Cells.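 For cell number change: cells counted by Cell Tracker Red CMTPX staining in the red channel.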 Conditions: BODIPY lipid droplet fluorescence, 18-24 h; for cell number change: measured here: cell count max response, cells fed with added oleic acid. The gist of the method:
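Laser-scanning cytometry quantifies lipid droplet accumulation (500–530 nm total intensity; droplet/cell object ratio) in oleic acid-fed (400 uM added) Drosophila S3 cells treated with a concentration series. 20 uM Triacsin C defined 100% inhibition.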
For orientation: Quantitative high-throughput screening tests each substance at several concentrations.

[1] abbreviates: measured here: lipid fluorescence (Fed channel) AC50, cells fed with added oleic acid.
Setting [2] is: measured here: cell number channel AC50, cells fed with added oleic acid.

This is one part of the list. These are further read-outs of the screen, such as a control signal, another cell line or another target. No call is given for them. Most of these compounds were active or inconclusive in the main read-out, so they are no random draw. Words in brackets tell the shape of the fitted curve; partial curves, single points and poor fits give uncertain potencies.

As for `CCC(=O)N1CCN=C1SCc1ccc(F)cc1`, the cell number change amounted to 27.4%. The AC50 under setting [1] is 7.31 µM [rising, partial curve, poor fit]. `COc1cccc(NC(=O)CN(C)CC(=O)Nc2ccc(C)cc2Cl)c1`: the cell number change is -11.6%. Turning to `Nc1ccc(C(=O)n2c3ccccc3c3ccccc32)cc1`, the cell number change is -26.6%. Further, the AC50 under setting [1] was 25.9 µM [falling, single point]. As for `CCCCCC(=O)N/N=C/c1ccc([N+](=O)[O-])o1`, the cell number change was -19.5%. Besides, the AC50 under setting [1] was 32.6 µM [falling, partial curve, poor fit]. On to `CCOC(=O)c1cc(OC(=O)c2ccccc2Br)n(-c2ccccc2)n1`, for which the cell number change was -5.07%. `COc1ccccc1C(=O)NCC(=O)Nc1ccc2c(c1)OCO2`: the cell number change was -82.1%. Moreover, under setting [2], the concentration at half-maximal activity (AC50) was 20.6 µM [falling, partial curve]. Besides, the AC50 under setting [1] is 0.206 µM [falling, partial curve, poor fit]. For `CCOC(=O)C1CCN(C(=O)c2cc3ccc(OC)cc3[nH]2)CC1`, the concentration at half-maximal activity (AC50) runs as follows: under setting [2], 6.51 µM [rising, single point]; under setting [1], 6.51 µM [rising, single point]. As to `CCCNc1nc2c(c(=O)n(C)c(=O)n2C)n1CCC(C)C`, the cell number change was determined as 54.2%. Further, the AC50 under setting [2] was 29.1 µM [rising, single point]. Also, the AC50 under setting [1] was 29.1 µM [rising, single point].

As for `CCCCCCC(=O)Nc1nc(C)c(-c2csc(Nc3ccccc3OC)n2)s1`, the AC50 under setting [1] is 0.0731 µM [rising, full curve, poor fit]. `CN1C(=O)[C@H]2[C@@H](C3CC3)N3C(=O)CN(Cc4ccc(-c5ccccc5)cc4)C(=O)[C@@]3(C)[C@H]2C1=O`: the cell number change worked out at 31.7%. The half-maximal activity concentration (AC50) under setting [2] was 0.164 µM [rising, full curve, poor fit]. Consider `COc1ccc(C2=NN3C(=O)c4c(ccc(OC)c4OC)C3C2)cc1` (configuration not stated), for which the cell number change is 66%. The AC50 under setting [2] is 2.31 µM [rising, full curve]. Further, under setting [1], the AC50 is 0.82 µM [rising, single point]. As to `O=C(CNc1ccc(Br)cc1)c1ccc(Br)s1`, the cell number change turned out to be 0.952%. Regarding `O=C(NCCCCNC(=O)C(F)(F)F)C(F)(F)F`, under setting [2], the concentration at half-maximal activity (AC50) is 6.51 µM [falling, single point]. For the molecule `CNC(=S)NCCc1ccccc1`, the cell number change turned out to be 6.45%. The AC50 under setting [1] is 0.00461 µM [falling, full curve, poor fit].

As for `CC(=O)c1c(C)nc(-c2ccc3c(c2)OCO3)n1O`, the cell number change was -3.11%.

On to `CS(=O)(=O)N(CC(=O)Nc1ccc(CC#N)cc1)c1ccc(C23CC4CC(CC(C4)C2)C3)cc1`, for which the cell number change is -124%. Besides, the concentration at half-maximal activity (AC50) under setting [1] was 29.1 µM [falling, single point].

`COC(=O)c1sc2nc(N3CCCCC3)c3c(c2c1N)CCCC3`: the cell number change was -35.5%. Further, the concentration at half-maximal activity (AC50) under setting [2] was 25.9 µM [falling, single point]. Further, the AC50 under setting [1] was 3.26 µM [rising, partial curve].

By AC50 is commonly meant the concentration giving half of the maximal activity seen. A lower AC50 goes with activity at low concentration.
